Results: publication PMC6190337
Construct, isoform or probe ends are uncertain for at least one entry.

What was measured:
cytochrome c [1] = assay: AuNR-LSPR sandwich assay (aggregation ratio 760/630 nm); settings: cyto-c 0-100 ng/mL on MMP-antibody, LOD 0.1 ng/mL (not a Kd); 5'-biotin-TEG; MMP-Ab blocking/wash buffer 10 mM HEPES, 75 mM NaCl, 5 mM MgCl2, 1 mM CaCl2, pH 7.4 (wash + 0.1% Tween-20, then water); cyto-c in PBS, 10% serum or RPMI-1640 + 20% FBS; commercial protein; label: biotin, bound to streptavidin-PEG-gold nanorod; single-stranded DNA
cytochrome c [2] = assay: confocal microscopy of GFP-tagged AuNR-aptamer on MMP-Ab; settings: fluorescence only when cyto-c present, GFP on nanorod; 5'-biotin-TEG; MMP-Ab blocking/wash buffer 10 mM HEPES, 75 mM NaCl, 5 mM MgCl2, 1 mM CaCl2, pH 7.4 (wash + 0.1% Tween-20, then water); cyto-c in PBS, 10% serum or RPMI-1640 + 20% FBS; commercial protein; label: biotin, bound to streptavidin-PEG-gold nanorod; single-stranded DNA

## ATCGATAAGCTTCCAGAGCCGTGTCTGGGGCCGACCGGCGCATTGGGTACGTTGTTGCCGTAGAATTCCTGCAGCC [76-mer cyto-c aptamer]
Cytochrome c [1]
  binding result: binds
Cytochrome c [2]
  binding result: binds
